These results are taken from PMC11535509.

No constants are given. Whether binding was seen depends on the method and setting. Some results given as binding are weak or reduced against the parent protein; the word gives no strength.

Test [1] has as its target T1, MICU1, mouse brain (mouse (endogenous in brain)) (UniProt Q8VCX5).
T1 sequence: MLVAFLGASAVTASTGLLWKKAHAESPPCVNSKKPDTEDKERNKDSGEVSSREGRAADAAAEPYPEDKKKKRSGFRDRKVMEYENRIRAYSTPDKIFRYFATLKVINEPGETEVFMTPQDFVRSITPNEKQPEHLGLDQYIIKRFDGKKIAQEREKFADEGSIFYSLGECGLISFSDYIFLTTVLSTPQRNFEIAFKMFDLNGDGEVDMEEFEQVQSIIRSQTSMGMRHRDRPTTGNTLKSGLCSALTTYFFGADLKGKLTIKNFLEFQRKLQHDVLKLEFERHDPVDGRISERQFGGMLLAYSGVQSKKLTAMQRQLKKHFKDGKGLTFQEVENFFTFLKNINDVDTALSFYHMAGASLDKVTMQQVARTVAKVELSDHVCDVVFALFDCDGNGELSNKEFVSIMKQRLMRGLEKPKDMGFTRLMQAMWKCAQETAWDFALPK
Nature of the test: non-reducing SDS-PAGE and immunoblot; mitochondria (HeLa, HEK293 or mouse brain) denatured at 70 °C for 10 min in LDS sample buffer with or without 100 mM DTT; shows only disulfide-linked dimers or oligomers. For orientation: In western blotting, separated proteins are transferred to a membrane and probed.

Test [2] concerns the target EF-hand domain-containing protein D1 (EFHD1), endogenous (human (endogenous in HEK293 and HeLa)) (UniProt Q9BUP0). Described as above.

B1: MICU3, mouse brain (protein, UniProt Q9CTY5 7-523)
chain: FLWPPPRLSPALAPQQPFLSPWGRPAGTAPGMSGRPFSCREEDEGAVAEAAWRRRRWGELSIAAAAGGGLVGLVCYQLYGDPRADPSELAAPELEDPPRGRGLLPIPVAAAKETVATGRAITEDLDLYATSRERRFRLFASIECEGQLFMTPYDFILAVTTDEPKFAKTWKSLSKQELSQMLSETPPVWKGSSKLFRNLKERGVISYTEYLFLLCILTKPHAGFRIAFNMFDTDGNEMVDKKEFLVLQEIFRKKNEKRETKGDEEKRAMLRLQLYGYHSPTNSVLKTDAGELVSRSYWDTLRRSTSQALFSDLAERADDITSLVADTTLLVHFFGKKGKAELNFEDFYRFMDNLQTEVLEIEFLSYSNGMNTISEEDFAHILLRYTNVENTSVFLENVRYSISEEKGITFDEFRSFFQFLNNLEDFAIALNMYNFASRSIGQDEFKRAVYVATGLKLSPHLVNTVFKIFDVDKDDQLSYKEFIGIMKDRLHRGFRGYKTVQKYPTFKSCLKKELHSR
For the molecule B1, in test [1], the binding result is listed as “binds”.

B2: EF-hand domain-containing protein D1 (EFHD1), endogenous (protein, UniProt Q9BUP0 1-239)
chain: MASEELACKLERRLRREEAEESGPQLAPLGAPAPEPKPEPEPPARAPTASADAELSAQLSRRLDINEGAARPRRCRVFNPYTEFPEFSRRLIKDLESMFKLYDAGRDGFIDLMELKLMMEKLGAPQTHLGLKSMIKEVDEDFDGKLSFREFLLIFHKAAAGELQEDSGLMALAKLSEIDVALEGVKGAKNFFEAKVQALSSASKFEAELKAEQDERKREEEERRLRQAAFQKLKANFNT
In the case of B2, in test [2], the binding entry is given as “no binding”.
